{"source": "PubChem BioAssay AID1259308 (NCATS, 2017)", "test": "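Candidate targets for better recombinant protein yield in mammalian cells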 (primary screen)", "cells": "human HEK293 embryonic kidney cells stably expressing firefly luciferase (HEK-CMV-Luc2-Hygro)", "reagents": "single siRNA against human genes, 0.8 pmol siRNA per well", "time to read-out": "72 h", "read-out": "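Reporter luminescence and viable-cell signal on separate replicate plates, given as percent of non-targeting control and median/MAD z-scores, plus per-cell luciferase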", "direction": "total luciferase, z-score: higher = more reporter protein produced", "active means": "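Active when the median/MAD z-score for overall luciferase is greater than 3; a gene was taken forward for validation with new siRNAs if at least two of its three siRNAs passed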", "meaning of the calls": "active = raised luciferase; inactive = no rise", "note": "Here is an unselected part of about 59,000 reagents tested. About 1,510 of them (2.6%) count as active. 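Calls use total luciferase alone and ignore viability, so some active siRNAs may act by altering cell number.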 The numbers tell different reagents against one gene apart. Further read-outs or replicates are left out here."}
{"gene": "SLC4A5", "siRNA no.": 1, "total luciferase, z-score": 0.605, "Outcome": "inactive"}
{"gene": "SLC4A5", "siRNA no.": 2, "total luciferase, z-score": 1.15, "Outcome": "inactive"}
{"gene": "SLC4A5", "siRNA no.": 3, "total luciferase, z-score": 0.704, "Outcome": "inactive"}
{"gene": "LAMP3", "siRNA no.": 1, "total luciferase, z-score": 2.86, "Outcome": "inactive"}
{"gene": "LAMP3", "siRNA no.": 2, "total luciferase, z-score": 0.336, "Outcome": "inactive"}
{"gene": "LAMP3", "siRNA no.": 3, "total luciferase, z-score": 1.11, "Outcome": "inactive"}
{"gene": "RPEL1", "siRNA no.": 1, "total luciferase, z-score": -0.524, "Outcome": "inactive"}
{"gene": "RPEL1", "siRNA no.": 2, "total luciferase, z-score": 1.17, "Outcome": "inactive"}
{"gene": "RPEL1", "siRNA no.": 3, "total luciferase, z-score": -0.238, "Outcome": "inactive"}
{"gene": "RPEL1", "siRNA no.": 4, "total luciferase, z-score": -1.93, "Outcome": "inactive"}
{"gene": "RPEL1", "siRNA no.": 5, "total luciferase, z-score": -0.941, "Outcome": "inactive"}
{"gene": "RPEL1", "siRNA no.": 6, "total luciferase, z-score": -1.55, "Outcome": "inactive"}

A stretch from the list above, as a working copy:
{"gene": "SLC4A5", "siRNA no.": 2, "total luciferase, z-score": 1.15, "Outcome": "inactive"}
{"gene": "SLC4A5", "siRNA no.": 3, "total luciferase, z-score": 0.704, "Outcome": "inactive"}
